In experiment [1] the target is T1, QS-13 peptide (…), minimal active sequence of Tetrastatin, the α4(IV) NC1 domain of collagen IV.
T1 sequence (peptide): QKISRCQVCVKYS
The experiment can be described thus: affinity chromatography; HUVEC extract (RIPA lysate) loaded at 4°C on a HiTrap NHS-activated Sepharose column functionalized with QS-13; wash 10 mM Tris, 1 mM CaCl2, 1 mM MgCl2, pH 7.6, 0.1% octylglucoside; elution with 0.15, 0.6 and 1 M NaCl; western blot for α5 and β1 integrin; only the target purified.

For experiment [2], the target named is α5β1 integrin (recombinant, R&D Systems 3230-A5-050). The experiment can be described thus: ELISA; solid phase competition assay: wells coated with 25 nM α5β1 integrin; biotinylated QS-13 with or without unbiotinylated QS-13 (molar ratio 1/1 to 250/1), 90 min at room temperature; streptavidin-peroxidase detection; both purified.

No constants are given. Whether binding was seen depends on the method and setting. Binding can be weak; no strength is given.

In the case of “α5β1 integrin of Human Umbilical Vein Endothelial Cells (HUVEC) (receptor)”, the binding entry in experiment [1] was “binds”.

B1: QS-13 peptide (…), minimal active sequence of Tetrastatin, the α4(IV) NC1 domain of collagen IV (peptide)
peptide: QKISRCQVCVKYS
With B1, in experiment [2], the binding result is listed as “binds”.

The record behind these values is article PMC7431705, “Angiogenesis Inhibition by a Short 13 Amino Acid Peptide Sequence of Tetrastatin, the α4(IV) NC1 Domain of Collagen IV” (Frontiers in Cell and Developmental Biology, 2020).
